These are yes or no findings as the source states them, for the method shown. In cells and extracts the contact can be indirect. Here binding means that the protein was enriched with, or labelled near, the bait; the list need not be complete.
B1: Anillin (endogenous prey) (protein, UniProt Q9NQW6 1-1124)
chain: MDPFTEKLLERTRARRENLQRKMAERPTAAPRSMTHAKRARQPLSEASNQQPLSGGEEKSCTKPSPSKKRCSDNTEVEVSNLENKQPVESTSAKSCSPSPVSPQVQPQAADTISDSVAVPASLLGMRRGLNSRLEATAASSVKTRMQKLAEQRRRWDNDDMTDDIPESSLFSPMPSEEKAASPPRPLLSNASATPVGRRGRLANLAATICSWEDDVNHSFAKQNSVQEQPGTACLSKFSSASGASARINSSSVKQEATFCSQRDGDASLNKALSSSADDASLVNASISSSVKATSPVKSTTSITDAKSCEGQNPELLPKTPISPLKTGVSKPIVKSTLSQTVPSKGELSREICLQSQSKDKSTTPGGTGIKPFLERFGERCQEHSKESPARSTPHRTPIITPNTKAIQERLFKQDTSSSTTHLAQQLKQERQKELACLRGRFDKGNIWSAEKGGNSKSKQLETKQETHCQSTPLKKHQGVSKTQSLPVTEKVTENQIPAKNSSTEPKGFTECEMTKSSPLKITLFLEEDKSLKVTSDPKVEQKIEVIREIEMSVDDDDINSSKVINDLFSDVLEEGELDMEKSQEEMDQALAESSEEQEDALNISSMSLLAPLAQTVGVVSPESLVSTPRLELKDTSRSDESPKPGKFQRTRVPRAESGDSLGSEDRDLLYSIDAYRSQRFKETERPSIKQVIVRKEDVTSKLDEKNNAFPCQVNIKQKMQELNNEINMQQTVIYQASQALNCCVDEEHGKGSLEEAEAERLLLIATGKRTLLIDELNKLKNEGPQRKNKASPQSEFMPSKGSVTLSEIRLPLKADFVCSTVQKPDAANYYYLIILKAGAENMVATPLASTSNSLNGDALTFTTTFTLQDVSNDFEINIEVYSLVQKKDPSGLDKKKKTSKSKAITPKRLLTSITTKSNIHSSVMASPGGLSAVRTSNFALVGSYTLSLSSVGNTKFVLDKVPFLSSLEGHIYLKIKCQVNSSVEERGFLTIFEDVSGFGAWHRRWCVLSGNCISYWTYPDDEKRKNPIGRINLANCTSRQIEPANREFCARRNTFELITVRPQREDDRETLVSQCRDTLCVTKNWLSADTKEERDLWMQKLNQVLVDIRLWQPDACYKPIGKP

Amino acid sequences for entries named in this document (tags omitted).
UniProt O14578: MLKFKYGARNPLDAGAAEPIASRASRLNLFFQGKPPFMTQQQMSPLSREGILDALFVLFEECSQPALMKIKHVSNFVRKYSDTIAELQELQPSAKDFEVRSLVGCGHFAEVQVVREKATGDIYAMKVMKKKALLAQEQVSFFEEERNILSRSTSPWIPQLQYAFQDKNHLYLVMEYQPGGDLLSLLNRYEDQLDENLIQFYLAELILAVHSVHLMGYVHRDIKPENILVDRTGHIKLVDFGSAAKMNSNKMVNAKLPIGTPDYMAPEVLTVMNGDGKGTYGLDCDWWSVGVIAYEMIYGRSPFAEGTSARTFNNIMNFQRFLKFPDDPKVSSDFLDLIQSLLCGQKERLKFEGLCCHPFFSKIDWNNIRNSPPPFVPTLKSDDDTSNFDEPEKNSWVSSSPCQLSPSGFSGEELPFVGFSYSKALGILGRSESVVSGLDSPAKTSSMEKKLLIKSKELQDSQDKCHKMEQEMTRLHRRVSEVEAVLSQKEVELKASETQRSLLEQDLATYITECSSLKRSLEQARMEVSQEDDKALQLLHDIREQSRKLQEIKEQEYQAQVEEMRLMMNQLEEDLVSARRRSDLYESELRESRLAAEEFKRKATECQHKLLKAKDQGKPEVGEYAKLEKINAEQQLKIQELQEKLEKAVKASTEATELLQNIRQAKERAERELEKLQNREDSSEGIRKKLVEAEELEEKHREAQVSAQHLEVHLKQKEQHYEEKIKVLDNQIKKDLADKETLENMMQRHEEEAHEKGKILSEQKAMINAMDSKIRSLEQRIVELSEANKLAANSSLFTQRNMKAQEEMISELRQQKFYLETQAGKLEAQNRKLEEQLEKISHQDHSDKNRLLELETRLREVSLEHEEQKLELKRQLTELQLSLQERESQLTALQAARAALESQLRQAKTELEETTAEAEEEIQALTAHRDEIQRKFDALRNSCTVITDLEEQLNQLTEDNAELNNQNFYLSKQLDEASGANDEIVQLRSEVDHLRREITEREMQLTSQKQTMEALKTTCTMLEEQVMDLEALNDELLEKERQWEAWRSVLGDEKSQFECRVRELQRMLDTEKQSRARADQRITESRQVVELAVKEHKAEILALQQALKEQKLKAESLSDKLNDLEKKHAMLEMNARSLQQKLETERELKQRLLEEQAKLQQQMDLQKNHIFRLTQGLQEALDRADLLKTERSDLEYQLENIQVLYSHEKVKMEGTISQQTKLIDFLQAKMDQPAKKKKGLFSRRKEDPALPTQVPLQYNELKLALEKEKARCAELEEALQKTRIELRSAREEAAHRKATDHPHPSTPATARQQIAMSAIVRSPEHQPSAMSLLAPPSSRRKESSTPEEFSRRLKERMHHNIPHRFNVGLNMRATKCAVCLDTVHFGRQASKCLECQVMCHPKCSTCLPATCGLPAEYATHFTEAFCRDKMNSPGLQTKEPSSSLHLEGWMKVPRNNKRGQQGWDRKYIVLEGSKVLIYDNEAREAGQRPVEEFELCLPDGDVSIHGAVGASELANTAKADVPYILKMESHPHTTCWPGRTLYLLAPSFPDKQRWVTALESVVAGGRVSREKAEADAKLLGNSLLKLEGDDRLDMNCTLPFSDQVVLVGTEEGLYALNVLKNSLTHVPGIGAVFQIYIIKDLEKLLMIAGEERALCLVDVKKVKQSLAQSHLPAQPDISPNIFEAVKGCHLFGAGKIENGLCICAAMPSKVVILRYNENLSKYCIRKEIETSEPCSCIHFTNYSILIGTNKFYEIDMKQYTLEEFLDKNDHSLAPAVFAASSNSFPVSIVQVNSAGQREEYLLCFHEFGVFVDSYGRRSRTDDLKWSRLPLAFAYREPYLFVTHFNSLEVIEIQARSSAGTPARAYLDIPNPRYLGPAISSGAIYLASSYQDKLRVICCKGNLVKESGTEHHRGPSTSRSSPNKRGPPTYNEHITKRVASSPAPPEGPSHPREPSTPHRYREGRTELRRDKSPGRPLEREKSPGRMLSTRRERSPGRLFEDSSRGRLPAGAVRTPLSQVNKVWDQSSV
UniProt O43663: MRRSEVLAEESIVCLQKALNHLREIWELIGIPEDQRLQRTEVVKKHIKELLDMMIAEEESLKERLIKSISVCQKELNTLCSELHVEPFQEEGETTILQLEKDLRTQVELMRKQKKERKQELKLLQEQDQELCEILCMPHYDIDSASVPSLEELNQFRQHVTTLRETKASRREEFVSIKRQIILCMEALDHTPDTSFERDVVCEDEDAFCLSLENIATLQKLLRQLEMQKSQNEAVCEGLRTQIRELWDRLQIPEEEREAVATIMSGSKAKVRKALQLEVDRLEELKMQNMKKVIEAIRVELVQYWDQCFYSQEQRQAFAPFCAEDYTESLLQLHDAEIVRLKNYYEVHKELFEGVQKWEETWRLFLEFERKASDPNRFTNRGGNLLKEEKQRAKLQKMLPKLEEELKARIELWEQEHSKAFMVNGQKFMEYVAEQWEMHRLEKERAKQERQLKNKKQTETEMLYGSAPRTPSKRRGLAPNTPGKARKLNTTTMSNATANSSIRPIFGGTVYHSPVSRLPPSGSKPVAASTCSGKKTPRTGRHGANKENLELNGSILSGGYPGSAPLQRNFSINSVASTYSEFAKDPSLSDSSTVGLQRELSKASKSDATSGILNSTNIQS
UniProt Q15058: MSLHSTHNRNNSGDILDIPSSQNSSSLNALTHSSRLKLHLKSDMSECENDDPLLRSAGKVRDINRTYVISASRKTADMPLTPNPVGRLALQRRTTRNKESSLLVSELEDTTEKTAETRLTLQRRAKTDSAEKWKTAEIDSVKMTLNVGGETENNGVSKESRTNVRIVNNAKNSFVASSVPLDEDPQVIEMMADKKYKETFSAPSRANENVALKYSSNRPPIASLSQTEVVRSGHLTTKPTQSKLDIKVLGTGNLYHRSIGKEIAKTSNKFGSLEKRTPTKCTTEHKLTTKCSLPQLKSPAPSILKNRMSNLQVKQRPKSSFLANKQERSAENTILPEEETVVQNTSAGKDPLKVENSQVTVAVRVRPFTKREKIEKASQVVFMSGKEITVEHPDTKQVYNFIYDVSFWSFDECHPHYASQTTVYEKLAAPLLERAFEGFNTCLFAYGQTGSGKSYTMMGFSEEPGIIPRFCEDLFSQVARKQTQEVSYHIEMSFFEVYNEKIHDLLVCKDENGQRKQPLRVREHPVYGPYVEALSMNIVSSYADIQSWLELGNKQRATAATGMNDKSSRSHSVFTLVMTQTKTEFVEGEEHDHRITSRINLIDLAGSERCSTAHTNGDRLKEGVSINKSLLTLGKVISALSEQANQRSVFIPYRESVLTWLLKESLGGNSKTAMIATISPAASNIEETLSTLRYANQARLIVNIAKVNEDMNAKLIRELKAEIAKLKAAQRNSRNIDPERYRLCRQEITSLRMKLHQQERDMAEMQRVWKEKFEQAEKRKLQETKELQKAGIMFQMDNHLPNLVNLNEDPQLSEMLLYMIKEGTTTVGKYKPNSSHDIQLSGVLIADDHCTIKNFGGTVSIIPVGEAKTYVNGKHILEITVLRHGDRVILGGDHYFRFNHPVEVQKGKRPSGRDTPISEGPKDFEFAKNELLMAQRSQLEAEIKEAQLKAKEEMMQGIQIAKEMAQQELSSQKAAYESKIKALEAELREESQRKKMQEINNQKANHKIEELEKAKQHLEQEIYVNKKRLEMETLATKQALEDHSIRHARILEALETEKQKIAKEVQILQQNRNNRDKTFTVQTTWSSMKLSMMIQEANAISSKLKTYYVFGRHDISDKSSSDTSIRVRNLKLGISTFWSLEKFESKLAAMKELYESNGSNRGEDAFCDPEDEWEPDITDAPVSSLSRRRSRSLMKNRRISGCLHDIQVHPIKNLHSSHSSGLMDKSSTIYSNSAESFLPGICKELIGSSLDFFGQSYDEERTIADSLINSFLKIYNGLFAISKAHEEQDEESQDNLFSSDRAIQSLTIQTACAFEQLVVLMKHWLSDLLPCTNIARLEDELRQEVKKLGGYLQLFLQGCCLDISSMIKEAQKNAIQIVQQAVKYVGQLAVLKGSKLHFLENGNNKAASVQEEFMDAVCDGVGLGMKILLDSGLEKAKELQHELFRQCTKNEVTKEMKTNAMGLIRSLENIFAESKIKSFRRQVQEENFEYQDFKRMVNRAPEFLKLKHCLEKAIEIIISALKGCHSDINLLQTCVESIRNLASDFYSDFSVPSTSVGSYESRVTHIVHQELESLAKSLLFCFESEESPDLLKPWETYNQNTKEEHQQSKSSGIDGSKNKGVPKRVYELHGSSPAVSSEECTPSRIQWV
UniProt P53350: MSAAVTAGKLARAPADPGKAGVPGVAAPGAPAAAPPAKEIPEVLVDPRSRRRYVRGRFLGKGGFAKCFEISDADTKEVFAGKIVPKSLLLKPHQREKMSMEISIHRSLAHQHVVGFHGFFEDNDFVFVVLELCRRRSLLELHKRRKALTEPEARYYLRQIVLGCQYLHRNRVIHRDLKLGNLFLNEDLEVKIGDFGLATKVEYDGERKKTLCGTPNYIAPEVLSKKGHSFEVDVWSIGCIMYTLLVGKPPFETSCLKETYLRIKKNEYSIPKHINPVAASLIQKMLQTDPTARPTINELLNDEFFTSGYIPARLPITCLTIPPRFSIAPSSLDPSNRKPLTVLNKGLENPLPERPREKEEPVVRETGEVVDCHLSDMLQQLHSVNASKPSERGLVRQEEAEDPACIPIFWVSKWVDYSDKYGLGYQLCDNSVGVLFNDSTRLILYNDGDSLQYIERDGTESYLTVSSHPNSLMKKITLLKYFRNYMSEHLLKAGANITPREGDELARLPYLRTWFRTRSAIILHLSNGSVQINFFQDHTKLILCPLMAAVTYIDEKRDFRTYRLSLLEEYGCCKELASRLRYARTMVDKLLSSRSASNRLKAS

What was measured:
[1] = molecular target: Citron kinase tagged with GFP (CIT-K::AcGFP) (UniProt O14578); assay: affinity purification with mass spectrometry
[2] = molecular target: GFP::PRC1 (UniProt O43663); assay: affinity purification with mass spectrometry

Row | Molecule | binding [1] | binding [2]
1 | kinesin KIF14 (endogenous prey) (from UniProt Q15058 1-1648) | binds | 
2 | Polo-like kinase 1 (Plk1) (from UniProt P53350 1-603) (enzyme) |  | binds
3 | B1 | binds | 

From article doi:10.1101/569459 (bioRxiv, 2019)
